# The list shows a part of the results.
# The chains behind the UniProt entries cited, without tags or fusion partners. Where a name states a change or a piece, a line headed by the entry shows the natural chain unless it says otherwise.
# UniProt P13807: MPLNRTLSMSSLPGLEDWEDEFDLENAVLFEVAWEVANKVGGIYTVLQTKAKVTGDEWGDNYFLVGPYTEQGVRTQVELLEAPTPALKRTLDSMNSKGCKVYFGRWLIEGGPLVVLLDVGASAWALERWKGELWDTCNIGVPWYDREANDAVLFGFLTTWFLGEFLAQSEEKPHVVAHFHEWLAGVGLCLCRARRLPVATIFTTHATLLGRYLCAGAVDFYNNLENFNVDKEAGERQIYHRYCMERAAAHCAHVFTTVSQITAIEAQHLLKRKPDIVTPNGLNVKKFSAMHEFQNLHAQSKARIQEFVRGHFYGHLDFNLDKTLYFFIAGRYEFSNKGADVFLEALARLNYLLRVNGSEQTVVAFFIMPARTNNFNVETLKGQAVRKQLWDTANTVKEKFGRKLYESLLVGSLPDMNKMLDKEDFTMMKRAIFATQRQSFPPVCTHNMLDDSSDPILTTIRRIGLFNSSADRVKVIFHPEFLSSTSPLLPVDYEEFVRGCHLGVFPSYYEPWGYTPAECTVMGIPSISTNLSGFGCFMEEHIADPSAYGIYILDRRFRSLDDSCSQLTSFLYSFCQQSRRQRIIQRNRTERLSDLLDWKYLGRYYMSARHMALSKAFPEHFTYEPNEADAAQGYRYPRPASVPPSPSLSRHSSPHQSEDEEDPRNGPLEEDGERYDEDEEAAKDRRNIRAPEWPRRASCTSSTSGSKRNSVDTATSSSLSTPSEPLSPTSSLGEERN
# UniProt P09105: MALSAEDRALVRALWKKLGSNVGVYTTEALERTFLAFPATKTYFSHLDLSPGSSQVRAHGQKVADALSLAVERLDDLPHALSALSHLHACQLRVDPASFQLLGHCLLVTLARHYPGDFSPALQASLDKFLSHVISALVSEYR
# UniProt P52657, whole entry, looked up: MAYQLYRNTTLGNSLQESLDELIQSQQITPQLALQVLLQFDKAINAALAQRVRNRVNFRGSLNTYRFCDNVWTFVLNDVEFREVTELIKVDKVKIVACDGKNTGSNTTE
# UniProt P52655, whole entry, looked up: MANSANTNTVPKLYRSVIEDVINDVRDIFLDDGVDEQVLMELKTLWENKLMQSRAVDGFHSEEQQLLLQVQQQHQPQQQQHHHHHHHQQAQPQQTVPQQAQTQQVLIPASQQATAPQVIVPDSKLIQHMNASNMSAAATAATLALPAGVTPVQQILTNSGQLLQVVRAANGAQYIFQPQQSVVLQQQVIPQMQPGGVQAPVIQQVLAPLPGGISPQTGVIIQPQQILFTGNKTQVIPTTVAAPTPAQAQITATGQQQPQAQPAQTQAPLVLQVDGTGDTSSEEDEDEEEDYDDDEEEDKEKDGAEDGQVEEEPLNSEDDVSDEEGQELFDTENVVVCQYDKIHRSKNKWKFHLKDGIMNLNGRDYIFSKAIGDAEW
# UniProt P69905, whole entry, looked up: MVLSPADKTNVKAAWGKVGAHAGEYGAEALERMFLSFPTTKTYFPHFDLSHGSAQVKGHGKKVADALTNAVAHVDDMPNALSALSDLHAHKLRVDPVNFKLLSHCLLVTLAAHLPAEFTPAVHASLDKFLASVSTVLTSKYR
# UniProt P09211: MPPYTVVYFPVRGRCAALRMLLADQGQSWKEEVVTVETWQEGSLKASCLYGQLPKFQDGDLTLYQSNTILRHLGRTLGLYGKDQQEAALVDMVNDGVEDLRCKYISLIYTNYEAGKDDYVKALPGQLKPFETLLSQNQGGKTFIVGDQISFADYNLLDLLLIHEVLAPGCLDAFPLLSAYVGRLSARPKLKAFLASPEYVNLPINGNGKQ
# UniProt P29084: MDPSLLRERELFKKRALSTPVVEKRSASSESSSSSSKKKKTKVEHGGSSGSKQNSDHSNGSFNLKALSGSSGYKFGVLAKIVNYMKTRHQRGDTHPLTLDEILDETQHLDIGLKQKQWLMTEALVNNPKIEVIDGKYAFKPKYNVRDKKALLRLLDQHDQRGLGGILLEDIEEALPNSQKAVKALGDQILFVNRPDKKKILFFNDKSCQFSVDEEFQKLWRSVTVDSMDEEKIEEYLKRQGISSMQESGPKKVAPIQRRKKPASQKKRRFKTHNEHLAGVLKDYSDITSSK
# UniProt Q7Z4Q2: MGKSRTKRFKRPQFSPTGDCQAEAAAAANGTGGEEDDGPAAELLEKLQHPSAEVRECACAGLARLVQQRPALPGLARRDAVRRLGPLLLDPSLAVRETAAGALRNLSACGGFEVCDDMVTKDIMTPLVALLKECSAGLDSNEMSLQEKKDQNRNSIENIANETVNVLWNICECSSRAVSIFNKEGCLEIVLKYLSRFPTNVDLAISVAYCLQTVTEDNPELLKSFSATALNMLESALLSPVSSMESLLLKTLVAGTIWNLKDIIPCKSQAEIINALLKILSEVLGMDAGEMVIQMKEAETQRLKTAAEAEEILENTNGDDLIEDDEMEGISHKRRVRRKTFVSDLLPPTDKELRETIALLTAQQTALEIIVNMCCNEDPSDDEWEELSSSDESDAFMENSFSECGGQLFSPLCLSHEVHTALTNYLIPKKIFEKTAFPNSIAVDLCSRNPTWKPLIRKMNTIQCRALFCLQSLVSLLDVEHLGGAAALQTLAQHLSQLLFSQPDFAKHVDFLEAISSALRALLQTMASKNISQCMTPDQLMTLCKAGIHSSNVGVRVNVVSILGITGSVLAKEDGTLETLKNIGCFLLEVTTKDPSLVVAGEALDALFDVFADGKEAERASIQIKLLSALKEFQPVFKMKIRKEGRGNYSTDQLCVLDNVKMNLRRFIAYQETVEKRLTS
# UniProt Q8N442: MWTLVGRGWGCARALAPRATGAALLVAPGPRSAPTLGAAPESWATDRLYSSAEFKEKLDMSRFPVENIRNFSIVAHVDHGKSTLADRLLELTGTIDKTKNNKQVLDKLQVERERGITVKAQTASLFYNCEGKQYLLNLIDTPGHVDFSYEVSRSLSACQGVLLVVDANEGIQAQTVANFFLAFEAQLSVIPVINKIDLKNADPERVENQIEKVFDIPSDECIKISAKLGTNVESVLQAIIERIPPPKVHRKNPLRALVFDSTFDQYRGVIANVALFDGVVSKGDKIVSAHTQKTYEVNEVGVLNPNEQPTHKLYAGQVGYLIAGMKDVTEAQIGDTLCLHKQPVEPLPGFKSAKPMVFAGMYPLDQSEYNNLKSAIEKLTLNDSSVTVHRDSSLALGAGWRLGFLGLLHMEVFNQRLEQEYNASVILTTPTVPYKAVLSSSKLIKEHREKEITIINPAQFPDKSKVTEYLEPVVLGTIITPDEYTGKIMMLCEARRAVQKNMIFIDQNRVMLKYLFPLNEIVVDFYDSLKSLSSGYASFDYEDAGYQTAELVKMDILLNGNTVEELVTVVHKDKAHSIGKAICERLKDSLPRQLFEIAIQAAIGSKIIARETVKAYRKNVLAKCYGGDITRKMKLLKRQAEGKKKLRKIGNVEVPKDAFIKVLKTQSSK
# UniProt Q7Z4H3: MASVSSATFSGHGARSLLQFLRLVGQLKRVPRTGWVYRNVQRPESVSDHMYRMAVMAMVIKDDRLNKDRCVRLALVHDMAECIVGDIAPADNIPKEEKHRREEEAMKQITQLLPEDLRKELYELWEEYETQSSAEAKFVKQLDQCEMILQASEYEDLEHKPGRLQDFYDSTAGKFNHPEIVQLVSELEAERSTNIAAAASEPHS
# UniProt Q13547, whole entry, looked up: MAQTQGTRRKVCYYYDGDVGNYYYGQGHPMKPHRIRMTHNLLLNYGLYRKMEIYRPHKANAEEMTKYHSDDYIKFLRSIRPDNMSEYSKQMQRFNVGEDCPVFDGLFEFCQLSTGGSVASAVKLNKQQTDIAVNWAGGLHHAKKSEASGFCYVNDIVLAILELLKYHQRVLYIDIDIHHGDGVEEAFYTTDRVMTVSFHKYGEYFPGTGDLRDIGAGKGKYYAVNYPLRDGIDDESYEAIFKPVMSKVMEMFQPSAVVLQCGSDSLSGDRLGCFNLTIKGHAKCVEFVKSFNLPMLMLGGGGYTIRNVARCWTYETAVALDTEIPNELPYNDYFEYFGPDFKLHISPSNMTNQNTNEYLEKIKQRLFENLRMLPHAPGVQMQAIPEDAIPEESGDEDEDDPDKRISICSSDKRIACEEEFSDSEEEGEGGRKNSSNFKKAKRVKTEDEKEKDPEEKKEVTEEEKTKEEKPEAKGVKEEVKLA
# UniProt Q16774: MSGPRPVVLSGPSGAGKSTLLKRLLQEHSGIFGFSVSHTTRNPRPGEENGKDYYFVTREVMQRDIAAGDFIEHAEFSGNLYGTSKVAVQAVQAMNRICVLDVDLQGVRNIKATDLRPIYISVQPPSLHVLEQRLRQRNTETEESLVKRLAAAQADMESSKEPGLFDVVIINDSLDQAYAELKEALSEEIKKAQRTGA
# UniProt P49841: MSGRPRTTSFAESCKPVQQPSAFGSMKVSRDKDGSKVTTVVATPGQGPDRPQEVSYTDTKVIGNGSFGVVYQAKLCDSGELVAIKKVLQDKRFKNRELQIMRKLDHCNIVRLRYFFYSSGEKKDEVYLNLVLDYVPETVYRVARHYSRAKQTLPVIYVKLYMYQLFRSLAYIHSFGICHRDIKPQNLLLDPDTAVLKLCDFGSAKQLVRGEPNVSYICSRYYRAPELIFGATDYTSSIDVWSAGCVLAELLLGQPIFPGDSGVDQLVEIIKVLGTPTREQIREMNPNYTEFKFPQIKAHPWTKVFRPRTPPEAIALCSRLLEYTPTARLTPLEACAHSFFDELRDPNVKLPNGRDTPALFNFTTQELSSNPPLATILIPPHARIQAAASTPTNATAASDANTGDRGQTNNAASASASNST
# UniProt Q9H6D7: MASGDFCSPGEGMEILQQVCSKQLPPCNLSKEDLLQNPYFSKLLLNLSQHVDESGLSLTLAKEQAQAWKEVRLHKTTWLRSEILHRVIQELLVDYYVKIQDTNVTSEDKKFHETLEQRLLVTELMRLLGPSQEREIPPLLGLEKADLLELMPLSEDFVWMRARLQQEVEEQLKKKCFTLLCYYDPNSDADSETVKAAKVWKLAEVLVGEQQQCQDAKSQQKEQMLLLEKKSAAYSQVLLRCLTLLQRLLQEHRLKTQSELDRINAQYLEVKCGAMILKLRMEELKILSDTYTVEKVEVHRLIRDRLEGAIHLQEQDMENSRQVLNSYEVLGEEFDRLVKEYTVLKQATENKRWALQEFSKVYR
# UniProt P78417: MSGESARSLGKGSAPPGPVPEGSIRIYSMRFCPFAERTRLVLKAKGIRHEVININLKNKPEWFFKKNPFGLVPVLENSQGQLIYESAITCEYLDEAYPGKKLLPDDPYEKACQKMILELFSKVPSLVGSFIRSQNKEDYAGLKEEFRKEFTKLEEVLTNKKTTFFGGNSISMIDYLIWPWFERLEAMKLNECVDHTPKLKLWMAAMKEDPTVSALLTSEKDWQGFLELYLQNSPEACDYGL
# UniProt Q9UBN7: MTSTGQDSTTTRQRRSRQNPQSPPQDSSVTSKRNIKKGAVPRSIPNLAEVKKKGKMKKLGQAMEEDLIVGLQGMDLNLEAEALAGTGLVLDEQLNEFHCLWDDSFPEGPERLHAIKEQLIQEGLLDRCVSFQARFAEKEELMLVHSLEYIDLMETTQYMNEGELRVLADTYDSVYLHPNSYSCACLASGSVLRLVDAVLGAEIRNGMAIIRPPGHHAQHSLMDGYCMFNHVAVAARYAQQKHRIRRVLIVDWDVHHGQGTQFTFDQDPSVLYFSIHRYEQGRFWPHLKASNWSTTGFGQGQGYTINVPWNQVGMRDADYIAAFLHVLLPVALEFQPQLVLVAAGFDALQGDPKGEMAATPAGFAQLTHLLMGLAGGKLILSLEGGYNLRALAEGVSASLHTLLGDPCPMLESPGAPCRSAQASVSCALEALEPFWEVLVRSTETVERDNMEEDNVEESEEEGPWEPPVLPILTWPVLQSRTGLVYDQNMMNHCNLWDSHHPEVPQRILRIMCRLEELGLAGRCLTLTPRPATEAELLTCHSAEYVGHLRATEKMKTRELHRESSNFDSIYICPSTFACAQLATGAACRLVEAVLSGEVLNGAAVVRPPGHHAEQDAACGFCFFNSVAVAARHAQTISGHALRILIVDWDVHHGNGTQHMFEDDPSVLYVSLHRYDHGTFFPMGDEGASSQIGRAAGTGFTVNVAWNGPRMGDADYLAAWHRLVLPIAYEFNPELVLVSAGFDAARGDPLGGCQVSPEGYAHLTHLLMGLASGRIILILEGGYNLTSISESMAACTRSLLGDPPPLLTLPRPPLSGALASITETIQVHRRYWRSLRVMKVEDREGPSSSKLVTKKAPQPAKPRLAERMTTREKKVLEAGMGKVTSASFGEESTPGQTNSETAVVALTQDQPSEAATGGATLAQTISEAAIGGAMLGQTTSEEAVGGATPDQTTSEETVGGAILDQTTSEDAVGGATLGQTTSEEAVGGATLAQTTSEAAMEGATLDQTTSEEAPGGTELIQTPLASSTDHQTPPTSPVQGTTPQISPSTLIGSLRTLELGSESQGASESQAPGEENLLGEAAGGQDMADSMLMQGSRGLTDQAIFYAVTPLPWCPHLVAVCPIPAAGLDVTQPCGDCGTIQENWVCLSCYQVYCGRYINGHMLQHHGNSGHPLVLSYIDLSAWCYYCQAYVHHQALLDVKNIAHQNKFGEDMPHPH
# Compound: CN1CCc2c(c3ccccc3n2Cc2ccc(C(=O)NO)cc2)C1 [Tubastatin A]
# Assay: log2 fold change, soluble protein after heating vs DMSO (PISA); higher = thermal stabilisation; K562 cells, 10 uM, 30 min; active = over 0.2 and 3.5 SD of the protein, either way, in both replicates (recomputed)
# Procedure, shortened: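 K562 cells at 2×10^6 cells/mL were treated with 10 μM compound for 30 min. Aliquots were heated for 3 min across 48°C-58°C, pooled, and extracted in PBS with 0.5% NP-40 at 4°C; soluble protein was the supernatant after 21,000xg for 90 min. Soluble protein was quantified by TMTpro 16plex LC-MS/MS with channel sums equalised, and reported as log2 fold change in thermal stability against DMSO controls, with values from duplicates.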
row,Target,log2 fold change
1,GYS1 (UniProt P13807),inactive: 0.035
2,HBQ1 (UniProt P09105),inactive: -0.011
3,GTF2A2 (UniProt P52657),inactive: 0.026
4,HBZ (UniProt P02008),inactive: 0
5,GTF2A1 (UniProt P52655),inactive: 0.003
6,HBA1 (UniProt P69905),inactive: 0.035
7,GSTP1 (UniProt P09211),inactive: -0.015
8,GTF2E2 (UniProt P29084),inactive: 0.054
9,HEATR3 (UniProt Q7Z4Q2),inactive: 0.109
10,GUF1 (UniProt Q8N442),inactive: -0.034
11,GYG1 (UniProt P46976),inactive: 0.033
12,GTF2H3 (UniProt Q13889),inactive: 0.124
13,HAX1 (UniProt O00165),inactive: 0.015
14,HDDC2 (UniProt Q7Z4H3),inactive: 0.015
15,HDAC1 (UniProt Q13547),active: 1.52
16,GUK1 isoform 2 (UniProt Q16774),inactive: 0.064
17,GSK3B isoform 2 (UniProt P49841),inactive: -0.007
18,HECTD1 (UniProt Q9ULT8),inactive: 0.071
19,HAUS4 (UniProt Q9H6D7),inactive: 0.044
20,HDAC2 (UniProt Q92769),active: 0.907
21,GUSB (UniProt P08236),inactive: -0.054
22,H2AFX (UniProt P16104),inactive: 0.025
23,GSTO1 (UniProt P78417),inactive: -0.021
24,HDAC6 (UniProt Q9UBN7),active: 1.01

# Random excerpt: 2 entries already listed.
row,Target,log2 fold change
12,GTF2H3 (UniProt Q13889),inactive: 0.124
5,GTF2A1 (UniProt P52655),inactive: 0.003
